Laboratory results from paper PMC3556083.
No constants are given. Whether binding was seen depends on the method and setting. Binding seen in cells or lysates may run through a third protein. Here binding means that the protein was enriched with, or labelled near, the bait; the list need not be complete.

B1: DLD (protein, UniProt Q6P6R2 36-509)
chain: SDQPIDADVTVIGSGPGGYVAAIKAAQLGFKTVCIEKNETLGGTCLNVGCIPSKALLNNSHYYHLAHGKDFASRGIEIPEVRLNLEKMMEQKRSAVKALTGGIAHLFKQNKVVHVNGFGKITGKNQVTATTADGSTQVIGTKNILIATGSEVTPFPGITIDEDTIVSSTGALSLKKVPEKLVVIGAGVIGVELGSVWQRLGADVTAVEFLGHVGGIGIDMEISKNFQRILQKQGFKFKLNTKVTGATKKSDGKIDVSVEAASGGKAEVITCDVLLVCIGRRPFTQNLGLEELGIELDPKGRIPVNTRFQTKIPNIFAIGDVVAGPMLAHKAEDEGIICVEGMAGGAVHIDYNCVPSVIYTHPEVAWVGKSEEQLKEEGVEFKVGKFPFAANSRAKTNADTDGMVKILGHKSTDRILGAHILGPGAGEMVNEAALALEYGASCEDVARVCHAHPTLSEAFREANLAASFGKPINF
B2: TXN (protein, UniProt P11232 1-105)
chain: MVKLIESKEAFQEALAAAGDKLVVVDFSATWCGPCKMIKPFFHSLCDKYSNVVFLEVDVDDCQDVAADCEVKCMPTFQFYKKGQKVGEFSGANKEKLEATITEFA
B3: PLA2G6 (protein, UniProt P97570 1-807)
chain: MQFFGRLVNTLSSVTNLFSNPFRVKEVSLADYASSERVREEGQLILLQNASNRTWDCVLVSPRNPQSGFRLFQLESEADALVNFQQYSSQLPPFYESSVQVLHVEVLQHLTDLIRNHPSWTVTHLAVELGIRECFHHSRIISCANSTENEEGCTPLHLACRKGDSEILVELVQYCHAQMDVTDNKGETAFHYAVQGDNPQVLQLLGKNASAGLNQVNNQGLTPLHLACQMGKQEMVRVLLLCNARCNIMGPGGFPIHTAMKFSQKGCAEMIISMDSNQIHSKDPRYGASPLHWAKNAEMARMLLKRGCDVDSTSASGNTALHVAVTRNRFDCVMVLLTYGANAGARGEHGNTPLHLAMSKDNMEMVKALIVFGAEVDTPNDFGETPAFIASKISKLITRKALLTLLKTVGADYHFPFIQGVSTEQSSAAGPHPFFSLDRTQPPTISLNNLELQDLMPVSRARKPAFILSSMRDEKRSHDHLLCLDGGGVKGLVIIQLLIAIEKASGVATKDLFDWVAGTSTGGILALAILHSKSMAYMRGVYFRMKDEVFRGSRPYESGPLEEFLKREFGEHTKMTDVKKPKVMLTGTLSDRQPAELHLFRNYDAPEAVREPRCTPNINLKPPTQPADQLVWRAARSSGAAPTYFRPNGRFLDGGLLANNPTLDAMTEIHEYNQDMIRKGQGNKVKKLSIVVSLGTGKSPQVPVTCVDVFRPSNPWELAKTVFGAKELGKMVVDCCTDPDGRAVDRARAWCEMVGIQYFRLNPQLGSDIMLDEVSDAVLVNALWETEVYIYEHREEFQKLVQLLLSP
B4: MARCKS (includes EG:4082) (protein, UniProt P30009 1-309)
chain: MGAQFSKTAAKGEAAAERPGEAAVASSPSKANGQENGHVKVNGDASPAAAEPGAKEELQANGSAPAADKEEPASGGAATPAAADKDEAAAAPEPGAATADKEAAEAEPAEPGSPSAETEGASASSTSSPKAEDGAAPSPSSETPKKKKKRFSFKKSFKLSGFSFKKSKKEAGEGAEAEGATADGAKDEAAAAAGGDAAAAPGEQAGGAGAEGAEGGESREAEAAEPEQPEQPEQPAAEEPRAEEPSEAVGEKAEEPAPGATADDAPSAAGPEQEAPAATDEPAASAAPSASPEPQPECSPEAPPAPVAE
B5: MSRA (protein, UniProt Q923M1 21-233)
chain: MGDSSSKVISAEEALPGRTESIPVAAKHHVSGNRTVEPFPEGTQMAVFGMGCFWGAERKFWLLKGVYSTQVGFAGGYTRNPTYKEVCSEKTGHAEVVRVVYRPEHVSFEELLKVFWENHDPTQGMRQGNDCGTQYRSAVYPTSAVQMEAALKSKEEYQKVLSKHGFGPITTDIREGQVFYYAEDYHQQYLSKNPDGYCGLGGTGVSCPTAIKK
B6: YWHAG (protein, UniProt P61983 1-247)
chain: MVDREQLVQKARLAEQAERYDDMAAAMKNVTELNEPLSNEERNLLSVAYKNVVGARRSSWRVISSIEQKTSADGNEKKIEMVRAYREKIEKELEAVCQDVLSLLDNYLIKNCSETQYESKVFYLKMKGDYYRYLAEVATGEKRATVVESSEKAYSEAHEISKEHMQPTHPIRLGLALNYSVFYYEIQNAPEQACHLAKTAFDDAIAELDTLNEDSYKDSTLIMQLLRDNLTLWTSDQQDDDGGEGNN
B7: FGA (protein, UniProt P06399 20-782)
chain: ADTGTTSEFIEAGGDIRGPRIVERQPSQCKETDWPFCSDEDWNHKCPSGCRMKGLIDEANQDFTNRINKLKNSLFDFQKNNKDSNSLTRNIMEYLRGDFANANNFDNTFGQVSEDLRRRIQILKRKVIEKAQQIQVLQKDVRDQLIDMKRLEVDIDIKIRSCKGSCSRSVSREINLKDYEGQQKQLEQVIAKDLLPAKDRQYLPAIKMSPVPDLVPGSFKSQLQEGPPEWKALTEMRQMRMELERPGKDGASRGDLPGDSRGDSATRGPGSKIENPMTPGHGGSGYWRPGSSGSGSDGNWGSGTTGSDDTGTWGAGSSRPSSGSGNLKPSNPDWGEFSEFGGSSSPATRKEYHTGKLVTSKGDKELLIGNEKVTSTGTSTTRRSCSKTITKTVLGNDGHREVVKEVVTSDDGSDCGDGMDLGLTHSFSGRLDELSRMHPELGSFYDSRFGSLTSNFKEFGSKTSDSDIFTDIENPSSHVPEFSSSSKTSTVRKQVTKSYKMADEAASEAHQEGDTRTTKRGRARTMRDCDDVLQTHPSGAQNGIFSIKLPGSSKIFSVYCDQETSLGGWLLIQQRMDGSLNFNRTWQDYKRGFGSLNDKGEGEFWLGNDYLHLLTLRGSVLRVELEDWAGKEAYAEYHFRVGSEAEGYALQVSSYQGTAGDALMEGSVEEGTEYTSHSNMQFSTFDRDADQWEENCAEVYGGGWWYNSCQAANLNGIYYPGGTYDPRNNSPYEIENGVLWVPFRGADYSLWAVRMKIRPLVGQ
B8: LONP1 (protein, UniProt Q924S5 66-950)
chain: LWDAGSRGGSDETSEGGVEDGATASSGEGPVVTALAPMTVPDVFPHLPLIAISRNPVFPRFIKIVEVKNKKLVELLRRKVRLAQPYVGVFLKRDDNNESDVVESLDEIYHTGTFAQIHEMQDLGDKLRMIVTGHRRIHISRQLEVEPEGLEPEAENKQKSRRKLKRGKKEVGDELGAKPQLEMVTEATSDTSKEVLMVEVENVAHEDFQVTEEVKALTAEIVKTIRDIIALNPLYRESVLQMMQAGQRVVDNPIYLSDMGAALTGAESHELQDVLEETNILKRLYKALSLLKKEFELSKLQQRLGREVEEKIKQTHRKYLLQEQLKIIKKELGLEKDDKDAIEEKFRERLKELVVPKHVMDVVDEELSKLALLDNHSSEFNVTRNYLDWLTSIPWGRQSDENLDLARAQSVLEEDHYGMEDVKKRVLEFIAVSQLRGSTQGKILCFHGPPGVGKTSIARSIARALGREYFRFSVGGMTDVAEIKGHRRTYVGAMPGKIIQCLKKTKTENPLVLIDEVDKIGRGYQGDPSSALLELLDPEQNANFLDHYLDVPVDLSKVLFICTANVTDTIPEPLRDRMEMINVSGYVAQEKLAIAERYLVPQARTLCGLDESKAQLSATVLTLLIKQYCRESGVRNLQKQVEKVLRKAAYKIVSGEAQTVHVTPENLQDFVGKPVFTVERMYDVTPPGVVMGLAWTAMGGSTLFVETSLRRPQPSGSKEDKDGSLEVTGQLGDVMKESARIAYTFARAFLMEQDPENDFLVTSHIHLHVPEGATPKDGPSAGCTIVTALLSLALGQPVLQNLAMTGEVSLTGKVLPVGGIKEKTIAAKRAGVTCIILPAENRKDFSDLAPFITEGLEVHFVEHYRDIFRIAFPLREHQEALAVER
B9: PRDX5 (protein, UniProt Q9R063 52-213)
chain: MAPIKVGDTIPSVEVFEGEPGKKVNLAELFKDKKGVLFGVPGAFTPGCSKTHLPGFVEQAGALKAKGAQVVACLSVNDAFVTAEWGRAHQAEGKVQLLADPTGAFGKETDLLLDDSLVSLFGNRRLKRFSMVIDKGVVKALNVEPDGTGLTCSLAPNILSQL

Each binder was assayed against β2-adrenergic receptor (UniProt P07550) (assay: affinity purification with mass spectrometry; purified Flag-β2AR in rHDL immobilised on M1 anti-Flag resin, occupied by 50 µM BI-167107 (full agonist) or 50 µM carazolol (inverse agonist); adult rat heart cytosol (10 mg/ml, 4 mM CaCl2) overnight at 4°C; eluted with FLAG peptide and EDTA; gel slices, LC-MS; proteins of the M1 resin, empty rHDL and Ni-NTA controls subtracted; hits of either or both samples; only the target purified).

Row | binding | Binder
1 | binds | B1
2 | binds | B2
3 | binds | B3
4 | binds | B4
5 | binds | B5
6 | binds | B6
7 | binds | B7
8 | binds | B8
9 | binds | B9
